The list does not hold the whole screen: it gathers tests that were run many times, whatever their T/C, doses with no T/C, and many T/C values between a quarter and a half above the control. Other doses and runs of a compound stand elsewhere. T/C is the treated group as % of the vehicle group. Some entries give survivors of the animals treated and no T/C: the source files T/C as zero there, which appears to mark a toxic dose or a test without result, not a measured value. Some survivor counts are full or nearly so, which does not show that the dose was tolerated: the source hardly ever lists a survival T/C far under the control, and the zero likely stands for such cases as well. Survivors were counted at the toxicity check, usually on the fifth day, unless a day is given; later deaths do not show. Schedule codes are those of the source, taken here to give the interval after Q, in days (D) or hours (H), and the number of doses after X. Some structures stand for samples that the source files as different forms (salt, stereo form or complex); doses refer to the form tested. Where survival is the endpoint, this PubChem deposit counts one and a half times the control or more as active, and values a quarter to a half above the control carry no call in these data; other NCI protocols may use other cut-offs. Some doses were run more than once; the values are given in rising order.
System: CD2F1 mice, L1210 leukemia ip, survival T/C
Assay: NCI In Vivo Anticancer Drug Screen. Data for tumor model L1210 Leukemia (intraperitoneal) in CD2F1 (CDF1) mice
Conditions: higher T/C = longer survival
Procedure, shortened: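 Mice carrying a transplanted tumor received test compound or vehicle alone. The value is the measurement in the treated group divided by that in the vehicle-treated control group.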

[1] = T/C endpoint: mean survival time, dose: 75.0 mg/kg/injection, schedule: Q01DX009 (ip), vehicle: Klucel (hydroxypropylcellulose) (HPC)
[2] = T/C endpoint: mean survival time, dose: 50.0 mg/kg/injection, schedule: Q01DX009 (ip), vehicle: saline with Tween-80
[3] = T/C endpoint: mean survival time, dose: 200.0 mg/kg/injection, schedule: Q01DX009 (ip), vehicle: saline with Tween-80

## CCN(C)N=Nc1ccc(NC(N)=O)cc1
T/C endpoint: mean survival time, dose: 18.75 mg/kg/injection, schedule: Q01DX009 (ip), vehicle: Klucel (hydroxypropylcellulose) (HPC)
  T/C: 133 % of control
T/C endpoint: mean survival time, dose: 37.5 mg/kg/injection, schedule: Q01DX009 (ip), vehicle: Klucel (hydroxypropylcellulose) (HPC)
  T/C: 146 % of control
[1]
  T/C: 130 % of control
  survivor count: 5 of 6
T/C endpoint: mean survival time, dose: 150.0 mg/kg/injection, schedule: Q01DX009 (ip), vehicle: Klucel (hydroxypropylcellulose) (HPC)
  survivor count: 0 of 6
T/C endpoint: mean survival time, dose: 300.0 mg/kg/injection, schedule: Q01DX009 (ip), vehicle: Klucel (hydroxypropylcellulose) (HPC)
  survivor count: 0 of 6

## CC(C)(C)OC(=O)NC(CCC(=O)OCc1ccccc1)C(=O)O (centres undefined) (tested in a mixture with another compound)
[2]
  survivor count: 6 of 6
[3]
  survivor count: 0 of 6
T/C endpoint: mean survival time, dose: 400.0 mg/kg/injection, schedule: Q01DX009 (ip), vehicle: saline with Tween-80
  survivor count: 0 of 6

## CC(=O)Nc1ncc2ccccc2c1-c1ccc(N(CCCl)CCCl)cc1
T/C endpoint: mean survival time, dose: 200.0 mg/kg/injection, schedule: Q04DX003 (ip), vehicle: DMSO
  T/C: 135 % of control
T/C endpoint: mean survival time, dose: 600.0 mg/kg/injection, schedule: Q04DX003 (ip), vehicle: saline + alcohol
  survivor count: 1 of 6

## O=C(O)C(=O)O.[NH-]C(c1ccccc1)C([NH-])c1ccccc1.[Pt+2] (centres undefined)
T/C endpoint: mean survival time, dose: 25.0 mg/kg/injection, schedule: Q04DX003 (ip), vehicle: saline with Tween-80
  T/C: 131 % of control

## O=C(NC(=O)c1ccccc1)Nc1ccccc1
[3]
  survivor count: 6 of 6

## CC(C)(C)[O][Pb]([c]1ccccc1)([c]1ccccc1)[c]1ccccc1
T/C endpoint: mean survival time, dose: 12.5 mg/kg/injection, schedule: Q01DX009 (ip), vehicle: saline with Tween-80
  survivor count: 0 of 6
T/C endpoint: mean survival time, dose: 25.0 mg/kg/injection, schedule: Q01DX009 (ip), vehicle: saline with Tween-80
  survivor count: 0 of 6
[2]
  survivor count: 0 of 6

## CCc1c2cc(OC)c(OC)cc2cc2c3cc(OC)c(OC)cc3cc[n+]12 (tested in a mixture with another compound)
T/C endpoint: mean survival time, dose: 22.0 mg/kg/injection, schedule: Q01DX009 (ip), vehicle: saline with Tween-80
  T/C: 128 % of control
T/C endpoint: mean survival time, dose: 25.0 mg/kg/injection, schedule: Q01DX009 (ip), vehicle: saline
  T/C: 125 % of control
[2]
  T/C: 134 % of control
T/C endpoint: mean survival time, dose: 132.0 mg/kg/injection, schedule: Q04DX003 (ip), vehicle: saline
  T/C: 129 % of control
T/C endpoint: mean survival time, dose: 150.0 mg/kg/injection, schedule: Q01DX009 (ip), vehicle: saline
  survivor count: 6 of 6
T/C endpoint: mean survival time, dose: 200.0 mg/kg/injection, schedule: Q01DX009 (ip), vehicle: saline
  survivor count: 6 of 6
T/C endpoint: mean survival time, dose: 200.0 mg/kg/injection, schedule: Q04DX003 (ip), vehicle: saline
  T/C: 134 and 135 % of control
T/C endpoint: mean survival time, dose: 300.0 mg/kg/injection, schedule: Q04DX003 (ip), vehicle: saline
  T/C: 146 % of control

## NC(Cc1ccc(N(CCCl)CCCl)cc1)C(=O)O (centres undefined)
T/C endpoint: mean survival time, dose: 5.0 mg/kg/injection, schedule: Q01DX007 (ip), vehicle: Klucel (hydroxypropylcellulose) (HPC)
  T/C: 147 % of control
T/C endpoint: mean survival time, dose: 5.0 mg/kg/injection, schedule: Q01DX007 (ip), vehicle: saline with Tween-80
  T/C: 144 % of control
T/C endpoint: mean survival time, dose: 5.0 mg/kg/injection, schedule: Q03DX003 (ip), vehicle: Klucel (hydroxypropylcellulose) (HPC)
  T/C: 139 % of control
T/C endpoint: mean survival time, dose: 5.0 mg/kg/injection, schedule: Q04DX003 (ip), vehicle: Klucel (hydroxypropylcellulose) (HPC)
  T/C: 132 % of control
T/C endpoint: mean survival time, dose: 10.0 mg/kg/injection, schedule: Q01DX007 (ip), vehicle: Klucel (hydroxypropylcellulose) (HPC)
  T/C: 138 % of control
T/C endpoint: mean survival time, dose: 10.0 mg/kg/injection, schedule: Q01DX007 (ip), vehicle: saline with Tween-80
  T/C: 134 % of control
T/C endpoint: mean survival time, dose: 20.0 mg/kg/injection, schedule: Q03DX003 (ip), vehicle: Klucel (hydroxypropylcellulose) (HPC)
  T/C: 140 % of control
T/C endpoint: median survival time, dose: 32.0 mg/kg/injection, schedule: Q01DX009 (ip), vehicle: saline
  survivor count: 4 of 6

## O=C1CCN(Cc2ccccc2)C(=O)N1
T/C endpoint: mean survival time, dose: 400.0 mg/kg/injection, schedule: Q04DX003 (ip), vehicle: saline with Tween-80
  survivor count: 0 of 6

## CCCCC#CC(=O)CCCCC
[3]
  survivor count: 0 of 3

— PubChem BioAssay AID256 (DTP/NCI, 2004)
